Data from publication PMC11348242.
Results are given in words; binding and its absence hold for the method and conditions named. In cells and extracts the contact can be indirect. Some binding calls cover weakened binding; strength is not graded here.

The chains behind the UniProt entries cited, without tags or fusion partners.
UniProt P13010: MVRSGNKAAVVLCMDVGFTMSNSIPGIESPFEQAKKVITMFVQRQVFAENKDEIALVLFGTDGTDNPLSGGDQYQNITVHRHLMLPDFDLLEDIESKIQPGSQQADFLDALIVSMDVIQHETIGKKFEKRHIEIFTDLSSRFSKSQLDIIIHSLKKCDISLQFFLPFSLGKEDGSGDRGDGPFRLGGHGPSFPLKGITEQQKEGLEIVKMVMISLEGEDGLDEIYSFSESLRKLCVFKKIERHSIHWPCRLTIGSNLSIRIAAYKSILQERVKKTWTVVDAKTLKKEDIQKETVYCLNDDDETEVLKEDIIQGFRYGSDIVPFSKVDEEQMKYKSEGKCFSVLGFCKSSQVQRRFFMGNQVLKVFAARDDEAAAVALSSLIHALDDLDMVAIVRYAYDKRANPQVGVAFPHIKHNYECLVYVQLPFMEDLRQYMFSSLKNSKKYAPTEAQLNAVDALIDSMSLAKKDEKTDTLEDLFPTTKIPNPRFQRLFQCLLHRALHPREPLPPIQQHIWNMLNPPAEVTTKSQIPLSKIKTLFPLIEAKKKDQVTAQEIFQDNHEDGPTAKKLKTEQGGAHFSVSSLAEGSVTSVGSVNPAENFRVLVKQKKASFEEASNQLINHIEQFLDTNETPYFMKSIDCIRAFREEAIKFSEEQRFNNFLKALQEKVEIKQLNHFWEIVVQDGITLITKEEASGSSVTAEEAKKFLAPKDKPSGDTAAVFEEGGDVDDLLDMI
UniProt P12956: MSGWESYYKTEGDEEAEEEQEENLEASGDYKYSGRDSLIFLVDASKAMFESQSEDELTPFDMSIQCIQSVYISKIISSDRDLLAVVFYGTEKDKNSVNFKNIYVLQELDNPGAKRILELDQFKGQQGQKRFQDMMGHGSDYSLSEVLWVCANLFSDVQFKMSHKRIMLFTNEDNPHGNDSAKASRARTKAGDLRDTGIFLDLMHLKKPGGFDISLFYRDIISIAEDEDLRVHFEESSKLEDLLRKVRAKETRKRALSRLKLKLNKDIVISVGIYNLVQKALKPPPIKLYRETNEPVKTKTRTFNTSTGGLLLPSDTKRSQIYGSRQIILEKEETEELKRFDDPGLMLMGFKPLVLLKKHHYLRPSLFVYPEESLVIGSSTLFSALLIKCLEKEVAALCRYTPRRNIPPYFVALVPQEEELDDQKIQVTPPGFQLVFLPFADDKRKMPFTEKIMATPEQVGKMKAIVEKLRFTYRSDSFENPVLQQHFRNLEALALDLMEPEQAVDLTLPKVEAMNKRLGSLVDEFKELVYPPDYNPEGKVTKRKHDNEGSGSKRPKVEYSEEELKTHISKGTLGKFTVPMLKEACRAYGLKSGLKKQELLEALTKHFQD

Assays:
[1] = target: Ku80 (human (endogenous in HeLa and HEK293)) (UniProt P13010); assay: co-IP; HEK293 cells, with or without RSL3 (4 µM, 2 h); immunoprecipitation with MIF, Ku70 or Ku80 antibodies, then immunoblot; rabbit and mouse IgG as negative controls
[2] = target: Ku70 (human (endogenous in HeLa and HEK293)) (UniProt P12956); assay: as above

B1: macrophage migration inhibitory factor (MIF) (protein, UniProt P14174 1-115)
chain: MPMFIVNTNVPRASVPDGFLSELTQQLAQATGKPPQYIAVHVVPDQLMAFGGSSEPCALCSLHSIGKIGGAQNRSYSKLLCGLLAERLRISPDRVYINYYDMNAANVGWNNSTFA
- binding [1]: binds
- binding [2]: binds
